Taken from: PubChem BioAssay AID1671195 (Yale University, 2021)

Test: 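Regulators of LDL receptor activity judged by labelled LDL uptake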 (primary screen)
System: human Huh7 hepatoma cells
Knock-down reagent: siRNA pool against human genes, 18 nM
Duration: about 2 to 2.5 days of knockdown, then 8 h LDL uptake
Conditions: DiI-labelled LDL at 30 µg/ml for 8 h, in lipoprotein-deficient serum medium
Measured: 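Fluorescent LDL signal imaged in cells, scaled to the plate median, robust z-score for each replicate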
Reading the numbers: robust z-score: higher = more LDL uptake after knockdown
Call rule: 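Active when two or more replicates show a robust z-score above 2 or below -2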
Here is a random part of about 22,000 reagents tested. About 1,510 of them (6.9%) count as active. 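Active includes knockdowns raising or lowering LDL uptake; positive z-scores mean more uptake, negative mean less.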 Unmarked entries are inactive.

gene	robust z-score, replicate 1	robust z-score, replicate 2	robust z-score, replicate 3
CLCF1	-0.063	-1.77	0.537
LINC01181	-2.47 (active)	-2.39	-2.53
LOC440999 (retired record)	1.62	1.58	1.25
GPN2	0.754	1.78	0.31
DDA1	0.417	0.223	0.878
GALR3	-1.09	-0.298	-0.504
SKI	-0.714	-0.633	-0.909
FIRRE	0.679	0.965	0.961
PGRMC1	1.78	1.45	1.59
FOS	0.428	0.29	-0.354
SRL	0.256	0.634	-0.143
TREML4	-0.515	-0.218	-0.13
SMIM19	0.422	-0.169	-0.0805
DPY19L2P4	0.313	0.355	0.335
LOC442144 (retired record)	0.633	0.597	1.18
MCM2	-0.785	-0.673	-0.252
FBN3	1.89	-0.213	0.722
USP7P1	-0.792	-0.63	-0.906
AASDH	-0.114	-0.981	-0.384
KIF17	-0.837	-0.269	-0.414
TIPIN	2.18 (active)	2.3	1.66
H2AC12	-0.537	-0.201	0.12
MBNL1	-1.24	-1.3	-1.22
CPA6	0.961	0.903	0.306
PLEKHG6	0.0446	-1.31	1.15
LINC02860	-0.125	-0.00526	-0.00905
ANO1	0.376	-0.451	0.843
CDIP1	-1.93	1.38	-0.87
ACSS3	0.513	0.113	0.0249
PDSS1	1.44	0.731	1.65
DARS1	-0.78	-0.56	-0.76
LARP7	0.0162	-0.78	0.631
BMP3	-0.258	-1.3	0.602
LOX	-0.865	-0.411	-0.578
PEDS1-UBE2V1	0.456	-0.417	-0.597
VASH1	1.81	-0.163	1.38
HEY2	-0.588	0.208	0.616
ARSH	0.0762	-0.121	0.141
DHX33	-0.183	-0.349	0.672
NUAK2	2.12	1.03	1.89
FNTA	-2.77	-1.5	-1.32
LOC441008 (retired record)	15.3	0.118	0.0115
MAMDC2	2.08 (active)	2.57	2.16
IMPDH2	-1.24	-1.25	-1.34
LINC00898	1.02	1.24	1.31
TEX19	2.77 (active)	2.73	1.79
POMGNT1	-1.47	-1.07	-0.976
ANKS6	2.43 (active)	1.71	2.48
SCN2B	-0.374	-0.445	-0.0618
ZNF483	-0.572	-0.905	-0.578
LINC00547	-0.859	-0.845	-0.805

Part of the list above in another layout.
| gene | robust z-score, replicate 1 | robust z-score, replicate 2 | robust z-score, replicate 3 |
| --- | --- | --- | --- |
| BMP3 | -0.258 | -1.3 | 0.602 |
| LOX | -0.865 | -0.411 | -0.578 |
| PEDS1-UBE2V1 | 0.456 | -0.417 | -0.597 |
| VASH1 | 1.81 | -0.163 | 1.38 |
| HEY2 | -0.588 | 0.208 | 0.616 |
| ARSH | 0.0762 | -0.121 | 0.141 |
| DHX33 | -0.183 | -0.349 | 0.672 |
| NUAK2 | 2.12 | 1.03 | 1.89 |
| FNTA | -2.77 | -1.5 | -1.32 |
| LOC441008 (retired record) | 15.3 | 0.118 | 0.0115 |
| MAMDC2 | 2.08 (active) | 2.57 | 2.16 |
| IMPDH2 | -1.24 | -1.25 | -1.34 |

Further entries:
gene	robust z-score, replicate 1	robust z-score, replicate 2	robust z-score, replicate 3
TMED10	-0.831	0.838	-0.78
CCNI	-0.931	-1.25	-0.223
TGM1	-0.687	-0.467	-0.172
CPAP	1.15	-1.13	0.366
DUSP23	0.941	0.617	1.87
KCTD7	1.46	1.15	0.457
ZCCHC7	-0.15	-0.394	-0.458
NF2	0.214	1.14	2.56
DUOX1	1.93 (active)	2.25	1.64
PRCC	-0.148	-0.583	0.0585
BMP2	-1.5	-2	0.0177
PPP3R1	0.993	3.12	0.961
FCGR3B	-0.42	-0.672	-0.586
ETFRF1	0.454	0.348	0.147
MPDZ	-0.439	-0.939	-0.905
SOX13	-0.726	-0.557	-0.52
FANK1	1.8	-0.0661	0.18
SOCS2	-0.457	0.488	-1.35
PPCS	-0.972	0.296	-0.611
PGR	0.763	0.131	-0.0149
FABP5	1.42	-0.472	-2.71
TACC3	0.31	1.05	-0.529
DRG1	-1.51	-1.52	-1.23
RABEP1	2.01	0.0435	0.107
KCNMB3	0.694	-0.256	0.733
CEP135	2.24	0.112	0.706
ADAMTSL2	-0.326	-0.908	-0.62
COX8A	2.66 (active)	2.78	2.17
ADAMDEC1	-0.829	-1.27	-0.0955
CD7	-1.38	0.915	-0.811
RUNX2	0.34	0.394	0.0984
ZNF682	-1.93	-1.7	-1.01
PEX7	0.477	1.15	0.408
DENND6B	2.88 (active)	3.17	3.19
PLEKHJ1	-0.351	0.449	-0.426
PDCD1LG2	-1.11	-1.64	-1.6
